Assay results reported in article PMC3994006.
No constants are given. Whether binding was seen depends on the method and setting. Binding seen in cells or lysates may run through a third protein. A yes stands for co-enrichment or nearness to the bait. Other partners may have been found.

Protein sequences, listed by entry. Tags and fused reporters are not part of them.
UniProt Q9QZL0: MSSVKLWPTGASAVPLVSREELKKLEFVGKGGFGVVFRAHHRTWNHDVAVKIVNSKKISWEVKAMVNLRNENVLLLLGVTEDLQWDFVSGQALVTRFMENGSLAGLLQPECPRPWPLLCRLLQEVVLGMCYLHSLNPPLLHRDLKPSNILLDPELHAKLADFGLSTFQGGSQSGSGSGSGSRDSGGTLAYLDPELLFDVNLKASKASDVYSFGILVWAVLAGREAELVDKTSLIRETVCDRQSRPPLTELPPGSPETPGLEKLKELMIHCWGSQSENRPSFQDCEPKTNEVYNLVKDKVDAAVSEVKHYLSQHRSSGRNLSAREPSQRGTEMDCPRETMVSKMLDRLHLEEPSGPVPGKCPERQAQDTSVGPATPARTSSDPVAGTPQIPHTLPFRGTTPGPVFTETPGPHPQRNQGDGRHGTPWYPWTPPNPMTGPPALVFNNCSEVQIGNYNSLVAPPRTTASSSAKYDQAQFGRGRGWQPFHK

Biological target: RIP3 (bait of the immunoprecipitation analysed by mass spectrometry) (UniProt Q9QZL0)
Experiment: affinity purification with mass spectrometry; immunoprecipitates of RIP3 analysed by mass spectrometry; cells and antibody not stated

- binding: binds
B1: RGS19 (found by mass spectrometry in the immunoprecipitates of RIP3) (protein, UniProt Q9CX84 1-216)
chain: MPTPHEAEKQHTGPEEADRPPSMSSHDAAPSGPPSRNPCCLCWCCCCSCSWNQERQRAWQVSRESKLQPLPSCEVCTPPSPKEVQSWAQSFDKLMHSPTGRSVFRAFLRTEYSEENMLFWLACEELKAEANQHVVDEKARLIYEDYVSILSPKEVSLDSRVREGINRKMQEPSPHTFDDAQLQIYTLMHRDSYPRFLTSPTYRSLLLQGAPQSSEA
